The list shows a part of the results, in another mix than the full data. The calls were merged from several studies; some rest on single wells. This is one part of the list.
Tests used:
Conditions in all cases: stereoisomer not certain
OR6B1 (Homo sapiens) = OR6B1 (Homo sapiens) (UniProt O95007)
Summary of the method: (§1)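 Whether a receptor–molecule pair is responsive (active) rests on the original authors' judgment that its measured signal was statistically different from baseline. Pairs without that judgment are non-responsive (inactive). Sources used varied assay methods, commonly transient luciferase assays in mammalian cell lines.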

By UniProt entry, the sequences of proteins in these tests, tags left out. Where a name states a change or a piece, a line headed by the entry shows the natural chain unless it says otherwise.
UniProt A6NDL8: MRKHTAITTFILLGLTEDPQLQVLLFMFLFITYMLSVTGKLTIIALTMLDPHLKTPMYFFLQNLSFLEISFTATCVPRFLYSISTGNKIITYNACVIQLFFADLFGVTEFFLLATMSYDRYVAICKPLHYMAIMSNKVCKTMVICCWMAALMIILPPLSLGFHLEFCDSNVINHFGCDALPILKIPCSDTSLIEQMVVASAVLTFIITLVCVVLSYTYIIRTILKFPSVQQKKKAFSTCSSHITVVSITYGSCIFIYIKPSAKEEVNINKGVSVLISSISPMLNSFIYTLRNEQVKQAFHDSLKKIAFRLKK
UniProt A6NIJ9: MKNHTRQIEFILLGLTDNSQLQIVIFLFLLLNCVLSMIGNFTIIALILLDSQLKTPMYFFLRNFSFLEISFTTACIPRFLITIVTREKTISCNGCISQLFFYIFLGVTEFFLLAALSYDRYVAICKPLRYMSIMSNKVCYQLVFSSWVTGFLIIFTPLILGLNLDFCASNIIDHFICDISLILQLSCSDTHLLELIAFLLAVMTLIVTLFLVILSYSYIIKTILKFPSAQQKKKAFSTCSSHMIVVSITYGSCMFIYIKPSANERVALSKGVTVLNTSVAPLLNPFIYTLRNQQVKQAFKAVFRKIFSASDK

OR6B1 = system: T1, OR6B1
T1 sequence (whole entry): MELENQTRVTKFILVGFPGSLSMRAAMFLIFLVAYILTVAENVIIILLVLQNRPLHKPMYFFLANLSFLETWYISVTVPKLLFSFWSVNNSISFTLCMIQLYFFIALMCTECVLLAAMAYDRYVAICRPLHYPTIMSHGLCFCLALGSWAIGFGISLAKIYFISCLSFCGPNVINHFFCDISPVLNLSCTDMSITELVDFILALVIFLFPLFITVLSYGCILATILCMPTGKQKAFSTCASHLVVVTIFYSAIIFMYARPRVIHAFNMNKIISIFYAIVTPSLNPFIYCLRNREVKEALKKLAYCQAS
Summary of the method: as §1

OR6B2 (Homo sapiens) = OR6B2 (Homo sapiens) (UniProt Q6IFH4)
Summary of the method: as §1

OR6B2 = system: T2, OR6B2
T2 sequence (whole entry): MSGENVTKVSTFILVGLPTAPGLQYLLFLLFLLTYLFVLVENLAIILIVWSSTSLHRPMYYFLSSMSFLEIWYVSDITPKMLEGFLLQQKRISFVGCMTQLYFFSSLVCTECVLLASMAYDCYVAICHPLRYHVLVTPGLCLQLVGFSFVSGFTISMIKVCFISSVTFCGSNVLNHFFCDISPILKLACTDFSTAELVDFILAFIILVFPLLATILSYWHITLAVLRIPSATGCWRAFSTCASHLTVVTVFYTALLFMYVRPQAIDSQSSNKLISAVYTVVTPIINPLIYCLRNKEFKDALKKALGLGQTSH
Summary of the method: as §1

OR6B3 (Homo sapiens) = OR6B3 (Homo sapiens) (UniProt Q8NGW1)
Summary of the method: as §1

OR6B3 = system: T3, OR6B3
T3 sequence (whole entry): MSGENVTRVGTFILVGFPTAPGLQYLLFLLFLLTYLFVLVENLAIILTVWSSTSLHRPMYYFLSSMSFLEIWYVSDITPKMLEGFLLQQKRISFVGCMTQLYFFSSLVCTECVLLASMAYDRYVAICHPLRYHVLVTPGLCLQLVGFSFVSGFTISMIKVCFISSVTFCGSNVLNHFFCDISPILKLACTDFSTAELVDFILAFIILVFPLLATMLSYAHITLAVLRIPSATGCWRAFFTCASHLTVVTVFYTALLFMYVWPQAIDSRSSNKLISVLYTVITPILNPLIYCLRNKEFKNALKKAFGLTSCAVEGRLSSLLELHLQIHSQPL
Summary of the method: as §1

OR6C1 (Homo sapiens) = OR6C1 (Homo sapiens) (UniProt Q96RD1)
Summary of the method: as §1

OR6C1 = system: T4, OR6C1
T4 sequence (whole entry): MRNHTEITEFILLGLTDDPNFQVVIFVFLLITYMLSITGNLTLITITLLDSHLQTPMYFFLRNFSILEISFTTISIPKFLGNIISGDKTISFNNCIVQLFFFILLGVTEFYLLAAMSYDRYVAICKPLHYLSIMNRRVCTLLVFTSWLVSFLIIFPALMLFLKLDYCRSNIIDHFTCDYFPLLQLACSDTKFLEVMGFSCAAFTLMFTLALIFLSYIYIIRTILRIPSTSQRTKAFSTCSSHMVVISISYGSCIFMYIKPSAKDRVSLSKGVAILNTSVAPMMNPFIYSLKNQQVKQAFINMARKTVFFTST
Summary of the method: as §1

OR6C2 (Homo sapiens) = target: T5, OR6C2 (Homo sapiens) (UniProt Q9NZP2)
T5 sequence (whole entry): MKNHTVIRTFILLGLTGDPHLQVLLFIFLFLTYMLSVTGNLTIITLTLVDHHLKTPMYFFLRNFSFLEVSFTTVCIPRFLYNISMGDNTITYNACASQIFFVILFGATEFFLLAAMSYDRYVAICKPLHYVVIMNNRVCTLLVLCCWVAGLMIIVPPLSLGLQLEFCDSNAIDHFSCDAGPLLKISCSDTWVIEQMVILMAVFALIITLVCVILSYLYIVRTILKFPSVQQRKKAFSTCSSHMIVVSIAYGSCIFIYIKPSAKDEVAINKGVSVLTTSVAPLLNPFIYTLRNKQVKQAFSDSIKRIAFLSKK
Summary of the method: as §1

OR6C3 (Homo sapiens) = target: T6, OR6C3 (Homo sapiens) (UniProt Q9NZP0)
T6 sequence (whole entry): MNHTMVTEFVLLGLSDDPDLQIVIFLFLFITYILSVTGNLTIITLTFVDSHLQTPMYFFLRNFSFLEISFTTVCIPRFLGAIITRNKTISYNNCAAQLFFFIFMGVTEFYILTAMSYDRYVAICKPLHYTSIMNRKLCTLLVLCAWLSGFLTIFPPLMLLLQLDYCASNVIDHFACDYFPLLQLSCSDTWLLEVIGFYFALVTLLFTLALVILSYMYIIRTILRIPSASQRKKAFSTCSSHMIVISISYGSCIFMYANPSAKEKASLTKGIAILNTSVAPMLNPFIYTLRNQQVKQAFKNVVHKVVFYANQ
Summary of the method: as §1

OR6C4 (Homo sapiens) = OR6C4 (Homo sapiens) (UniProt Q8NGE1)
Summary of the method: as §1

OR6C4 = system: T7, OR6C4
T7 sequence (whole entry): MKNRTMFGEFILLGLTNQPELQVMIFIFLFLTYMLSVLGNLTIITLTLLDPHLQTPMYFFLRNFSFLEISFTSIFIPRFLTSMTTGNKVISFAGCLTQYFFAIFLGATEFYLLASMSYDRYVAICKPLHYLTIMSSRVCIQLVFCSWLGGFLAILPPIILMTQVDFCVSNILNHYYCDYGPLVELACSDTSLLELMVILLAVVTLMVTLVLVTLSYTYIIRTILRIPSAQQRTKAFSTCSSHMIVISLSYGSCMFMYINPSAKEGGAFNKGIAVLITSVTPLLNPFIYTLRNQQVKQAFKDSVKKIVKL
Summary of the method: as §1

OR6C6 (Homo sapiens) = target: T8, OR6C6 (Homo sapiens) (UniProt A6NF89)
T8 sequence (whole entry): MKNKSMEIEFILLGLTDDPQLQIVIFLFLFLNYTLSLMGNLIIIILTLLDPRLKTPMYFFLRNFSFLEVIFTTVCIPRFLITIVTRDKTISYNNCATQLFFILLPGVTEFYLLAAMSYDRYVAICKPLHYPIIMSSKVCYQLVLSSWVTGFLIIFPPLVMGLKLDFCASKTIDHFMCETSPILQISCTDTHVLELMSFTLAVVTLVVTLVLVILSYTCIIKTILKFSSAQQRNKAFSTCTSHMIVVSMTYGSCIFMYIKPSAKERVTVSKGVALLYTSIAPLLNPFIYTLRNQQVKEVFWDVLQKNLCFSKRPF
Summary of the method: as §1

OR6C65 (Homo sapiens) = target: T9, OR6C65 (Homo sapiens) (UniProt A6NJZ3)
T9 sequence (whole entry): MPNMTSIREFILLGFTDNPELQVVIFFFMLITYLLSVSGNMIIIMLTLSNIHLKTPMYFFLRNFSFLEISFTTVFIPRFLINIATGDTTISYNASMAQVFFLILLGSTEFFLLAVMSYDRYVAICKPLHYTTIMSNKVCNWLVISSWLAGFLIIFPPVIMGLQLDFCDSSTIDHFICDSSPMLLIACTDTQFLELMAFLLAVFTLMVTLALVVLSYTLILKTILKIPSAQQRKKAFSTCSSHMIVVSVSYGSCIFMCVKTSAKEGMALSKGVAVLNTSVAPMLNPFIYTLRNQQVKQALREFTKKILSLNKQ
Summary of the method: as §1

OR6C68 (Homo sapiens) = OR6C68 (Homo sapiens) (UniProt A6NDL8)
Summary of the method: as §1

OR6C70 (Homo sapiens) = OR6C70 (Homo sapiens) (UniProt A6NIJ9)
Summary of the method: as §1

OR6C74 (Homo sapiens) = target: T10, OR6C74 (Homo sapiens) (UniProt A6NCV1)
T10 sequence (whole entry): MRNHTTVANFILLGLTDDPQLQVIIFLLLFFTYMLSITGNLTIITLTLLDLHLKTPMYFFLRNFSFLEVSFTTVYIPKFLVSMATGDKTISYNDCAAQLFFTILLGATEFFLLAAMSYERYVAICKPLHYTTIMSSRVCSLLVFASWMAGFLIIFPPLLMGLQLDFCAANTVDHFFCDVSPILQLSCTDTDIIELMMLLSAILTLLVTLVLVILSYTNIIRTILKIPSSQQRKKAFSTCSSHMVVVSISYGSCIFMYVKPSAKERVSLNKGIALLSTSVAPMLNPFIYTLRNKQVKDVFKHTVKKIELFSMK
Summary of the method: as §1

OR6C75 (Homo sapiens) = target: T11, OR6C75 (Homo sapiens) (UniProt A6NL08)
T11 sequence (whole entry): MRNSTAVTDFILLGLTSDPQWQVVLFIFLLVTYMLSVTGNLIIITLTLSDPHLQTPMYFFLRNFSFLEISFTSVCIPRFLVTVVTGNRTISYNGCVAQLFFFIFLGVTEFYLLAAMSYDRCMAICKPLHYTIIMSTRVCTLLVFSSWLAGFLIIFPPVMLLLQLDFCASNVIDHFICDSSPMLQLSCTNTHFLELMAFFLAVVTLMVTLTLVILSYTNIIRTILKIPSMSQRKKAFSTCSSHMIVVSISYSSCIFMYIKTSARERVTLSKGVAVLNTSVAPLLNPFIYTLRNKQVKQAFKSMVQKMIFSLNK
Summary of the method: as §1

OR6C76 (Homo sapiens) = target: T12, OR6C76 (Homo sapiens) (UniProt A6NM76)
T12 sequence (whole entry): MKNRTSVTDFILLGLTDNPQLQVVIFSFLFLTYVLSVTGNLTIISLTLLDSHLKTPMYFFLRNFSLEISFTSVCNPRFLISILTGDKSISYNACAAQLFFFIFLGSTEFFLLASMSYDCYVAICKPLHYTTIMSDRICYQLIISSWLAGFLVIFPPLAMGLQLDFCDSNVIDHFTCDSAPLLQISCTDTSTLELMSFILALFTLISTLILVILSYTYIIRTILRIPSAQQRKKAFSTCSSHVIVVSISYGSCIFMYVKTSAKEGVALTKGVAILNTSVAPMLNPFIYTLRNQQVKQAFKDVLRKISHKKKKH
Summary of the method: as §1

OR6F1 (Homo sapiens) = target: T13, OR6F1 (Homo sapiens) (UniProt Q8NGZ6)
T13 sequence (whole entry): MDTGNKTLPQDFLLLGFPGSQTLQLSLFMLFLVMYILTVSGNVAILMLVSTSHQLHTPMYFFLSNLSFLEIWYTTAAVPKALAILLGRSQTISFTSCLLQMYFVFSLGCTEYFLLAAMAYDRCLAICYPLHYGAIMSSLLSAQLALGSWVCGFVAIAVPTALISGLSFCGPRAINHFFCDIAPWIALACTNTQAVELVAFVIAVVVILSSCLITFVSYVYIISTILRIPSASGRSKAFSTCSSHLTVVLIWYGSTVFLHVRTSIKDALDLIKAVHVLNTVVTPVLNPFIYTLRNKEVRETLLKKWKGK
Summary of the method: as §1
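Also: active if original authors judged signal statistically different from baseline.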

SMILES	odorant receptor agonist call (OR6B1 (Homo sapiens))	odorant receptor agonist call (OR6B1)	odorant receptor agonist call (OR6B2 (Homo sapiens))	odorant receptor agonist call (OR6B2)	odorant receptor agonist call (OR6B3 (Homo sapiens))	odorant receptor agonist call (OR6B3)	odorant receptor agonist call (OR6C1 (Homo sapiens))	odorant receptor agonist call (OR6C1)	odorant receptor agonist call (OR6C2 (Homo sapiens))	odorant receptor agonist call (OR6C3 (Homo sapiens))	odorant receptor agonist call (OR6C4 (Homo sapiens))	odorant receptor agonist call (OR6C4)	odorant receptor agonist call (OR6C6 (Homo sapiens))	odorant receptor agonist call (OR6C65 (Homo sapiens))	odorant receptor agonist call (OR6C68 (Homo sapiens))	odorant receptor agonist call (OR6C70 (Homo sapiens))	odorant receptor agonist call (OR6C74 (Homo sapiens))	odorant receptor agonist call (OR6C75 (Homo sapiens))	odorant receptor agonist call (OR6C76 (Homo sapiens))	odorant receptor agonist call (OR6F1 (Homo sapiens))
CC12C=CCC1C1CCC3CC(=O)CCC3(C)C1CC2 (configuration not stated)	inactive	active	inactive	inactive	inactive	inactive	inactive	inactive	inactive	inactive	inactive	inactive	inactive	inactive	inactive	inactive	inactive	inactive	inactive	inactive
O=C1CCCCCCCCCCCC(=O)OCCO1	–	inactive	–	inactive	–	inactive	–	inactive	inactive	inactive	–	inactive	inactive	inactive	–	–	inactive	inactive	inactive	inactive
CC(C)CC(=O)O	–	inactive	–	inactive	–	inactive	–	inactive	inactive	inactive	–	inactive	inactive	inactive	–	–	inactive	inactive	inactive	inactive
c1ccc(Oc2ccccc2)cc1	–	inactive	–	inactive	–	inactive	–	inactive	inactive	inactive	–	inactive	inactive	inactive	–	–	inactive	inactive	inactive	inactive
CCCCCCCCOC(C)=O	–	inactive	–	inactive	–	inactive	–	inactive	inactive	inactive	–	inactive	inactive	inactive	–	–	inactive	inactive	inactive	inactive
CCCCCCCC=CC=O	–	inactive	–	inactive	–	inactive	–	inactive	inactive	inactive	–	inactive	inactive	inactive	–	–	inactive	inactive	inactive	active
O=C1CCCCCCCCCCCCCCO1	–	inactive	–	inactive	–	inactive	–	inactive	inactive	inactive	–	inactive	inactive	inactive	–	–	inactive	inactive	inactive	inactive
CC(=O)c1ccccc1	–	inactive	–	inactive	–	inactive	–	inactive	inactive	inactive	–	inactive	inactive	inactive	–	–	inactive	inactive	inactive	inactive
COc1cc(C=O)ccc1O	–	inactive	–	inactive	–	inactive	–	inactive	inactive	inactive	–	inactive	inactive	inactive	–	–	inactive	inactive	inactive	inactive
CCCCCCCOC(C)=O	–	inactive	–	inactive	–	inactive	–	inactive	inactive	inactive	–	inactive	inactive	inactive	–	–	inactive	inactive	inactive	inactive
